Source: doi:10.1101/2024.12.16.627577
Where two headings read alike, the source gives them in different places. No constants are given. Whether binding was seen depends on the method and setting. In cells and extracts the contact can be indirect. Some entries that bind do so weakly or less than the wild type.

Sequences of proteins named here, by UniProt entry; tags and fusion partners are left off.
UniProt P63044: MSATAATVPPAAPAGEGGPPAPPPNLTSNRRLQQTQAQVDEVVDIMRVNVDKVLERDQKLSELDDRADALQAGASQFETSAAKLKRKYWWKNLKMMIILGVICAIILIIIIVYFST

B1: Vesicle Transport through Interaction with t-SNAREs 1B (mouse) (protein, UniProt O88384 1-232)
chain: MAASAASSEHFEKLHEIFRGLLEDLQGVPERLLGTAGTEEKKKLVRDFDENQQEANETLAEMEEELRYAPLTFRNPMMSKLRNYRKDLAKLHREVRSTPLTAAPGGRGDLKYGTYTLENEHLNRLQSQRALLLQGTESLNRATQSIERSHRIATETDQIGTEIIEELGEQRDQLERTKSRLVNTNENLSKSRKILRSMSRKVITNKLLLSVIILLELAILVGLVYYKFFRHH
B2: VAMP8 (mouse) (protein, UniProt O70404 1-101)
chain: MEEASGSAGNDRVRNLQSEVEGVKNIMTQNVERILSRGENLDHLRNKTEDLEATSEHFKTTSQKVARKFWWKNVKMIVIICVIVLIIVILIILFATGTIPT
B3: VAMP8 (human), Q9BV40 1-100 (protein)
chain: MEEASEGGGNDRVRNLQSEVEGVKNIMTQNVERILARGENLEHLRNKTEDLEATSEHFKTTSQKVARKFWWKNVKMIVLICVIVFIIILFIVLFATGAFS

Experiments:
Assay in all cases: co-IP
[1] = target: T1, Vesicle Transport through Interaction with t-SNAREs 1B (mouse) (mouse (endogenous in iBMDMs)) (UniProt O88384)
T1 sequence: B1 chain

[2] = target: T2, Syntaxin 8 (mouse) (mouse (endogenous in iBMDMs)) (UniProt O88983)
T2 sequence: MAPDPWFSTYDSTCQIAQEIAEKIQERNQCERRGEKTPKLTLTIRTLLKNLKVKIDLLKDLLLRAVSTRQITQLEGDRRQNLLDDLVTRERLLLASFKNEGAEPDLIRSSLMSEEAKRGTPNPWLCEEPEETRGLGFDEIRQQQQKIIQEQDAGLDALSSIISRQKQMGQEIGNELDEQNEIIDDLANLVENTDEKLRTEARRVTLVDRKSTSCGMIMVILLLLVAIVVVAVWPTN

[3] = target: T1, Vesicle Transport through Interaction with t-SNAREs 1B (mouse) (mouse (endogenous in iBMDMs)); remark: listed apart in the source
[4] = target: T2, Syntaxin 8 (mouse) (mouse (endogenous in iBMDMs)); remark: listed apart in the source
[5] = target: T3, Syntaxin 8 (human) (human (endogenous in THP-1)), Q9UNK0; conditions: remark: other sources report otherwise
T3 chain: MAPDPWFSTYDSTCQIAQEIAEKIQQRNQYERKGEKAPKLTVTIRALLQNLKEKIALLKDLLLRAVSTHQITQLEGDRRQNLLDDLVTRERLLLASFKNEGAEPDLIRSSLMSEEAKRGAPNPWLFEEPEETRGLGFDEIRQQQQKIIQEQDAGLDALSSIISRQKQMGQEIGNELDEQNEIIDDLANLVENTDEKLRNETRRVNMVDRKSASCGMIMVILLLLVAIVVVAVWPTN

Row | Molecule | binding [1] | binding [2] | binding [3] | binding [4] | binding [5]
1 | Vesicle Associated Membrane Protein 2 (mouse) (from UniProt P63044 1-116) | binds | binds | binds | binds | 
2 | B1 |  |  |  | binds | 
3 | B2 | binds | binds | binds | binds | 
4 | B3 |  |  |  |  | binds
